The list shows a part of the results. These are further read-outs of the screen, such as a control signal, another cell line or another target. No call is given for them. Most of these compounds were active or inconclusive in the main read-out, so they are no random draw. Words in brackets tell the shape of the fitted curve; partial curves, single points and poor fits give uncertain potencies. Where a SMILES comes first, the peptide text is derived from it. [ ]: non-standard residue; d: D form. ξ: configuration not given here. ξM = CSCCC(N)C(=O)O
Experiment: qHTS Assay for Lipid Storage Modulators in Drosophila S3 Cells;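 on cell number change: cells counted by Cell Tracker Red CMTPX staining in the red channel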
Conditions: BODIPY lipid droplet fluorescence, 18-24 h; for cell number change: measured here: cell count max response, cells fed with added oleic acid
In short: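 Laser-scanning cytometry quantifies lipid droplet accumulation (500–530 nm total intensity; droplet/cell object ratio) in oleic acid-fed (400 uM added) Drosophila S3 cells treated with a concentration series. 20 uM Triacsin C defined 100% inhibition.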

[1] = measured here: lipid fluorescence (Fed channel) AC50, cells fed with added oleic acid
[2] = measured here: cell number channel AC50, cells fed with added oleic acid

Row | Structure (SMILES) | cell number change [%] | AC50 [1] | AC50 [2]
1 | Cc1nnc(NC(=O)c2c(F)c(F)c(F)c(F)c2F)s1 | -10 | 18.4 µM [falling, single point] | –
2 | COc1ccc([N+](=O)[O-])cc1NC1CCN(C(=O)c2cccs2)CC1 | 5.95 | – | –
3 | CCCn1cnc2c(oc3ccccc32)c1=O | 10.6 | – | –
4 | Cc1ccc(/C=N/n2c(C)nc3ccccc3c2=O)o1 | -96.9 | – | –
5 | COc1ccc(C2CC(=O)c3cc(OC)c(OC)cc32)cc1OC (centres undefined) | – | 0.731 µM [rising, single point] | –
6 | C=C(C(=O)Oc1c(C(C)(C)C)cccc1C(C)(C)C)c1ccccc1 | -7.24 | 5.17 µM [falling, partial curve, poor fit] | 0.259 µM [falling, full curve]
7 | CCOc1ccc(NC(=O)CSc2nnc(C)n2CC2CCCO2)cc1 (centres undefined) | – | 1.46 µM [rising, partial curve] | –
8 | CC(=O)Nc1cccc(Oc2ccc(-c3noc(C)n3)cc2)c1 | -4.61 | 2.59 µM [rising, full curve] | –
9 | COc1ccc(-n2c(C)cc(C3=NNC(=NC4CC4)SC3)c2C)cc1 | – | 3.66 µM [rising, single point] | 5.17 µM [rising, single point]
10 | Cc1cccc(N2CCN(C(=O)C3CCN(c4ncnc5c4nc4n5CCCCC4)CC3)CC2C)c1 (centres undefined) | -29 | – | –
11 | COc1cc(C(=O)N2CCN(S(=O)(=O)c3ccc(F)cc3)CC2)cc(OC)c1OC | 14.1 | 16.4 µM [rising, single point] | –
12 | CC(=O)Nc1cc(-c2nn(C)c(=O)c3ccccc23)ccc1N1CCOCC1 | 77.3 | – | 18.4 µM [rising, partial curve, poor fit]
13 | COc1ccc(C(=O)N(C)Cc2ccccn2)cc1OC1CCN(C(C)C)CC1 | 4.05 | – | –
14 | CCOc1nc(N2CCCCC2)nc(-n2cc(-c3ccccc3)nn2)n1 | -1.19 | – | –
15 | CC1CCc2c(sc(NC(=O)c3c([N+](=O)[O-])cnn3C)c2C(N)=O)C1 (centres undefined) | 5.67 | 29.1 µM [rising, single point] | –
16 | CC(C)CN(C(=O)COC(=O)c1nc(Cl)ccc1Cl)C1CCS(=O)(=O)C1 (centres undefined) | 7.17 | – | –
17 | CCOC(=O)N1CCN(C(=O)c2ccc(Cn3c(=S)[nH]c4ccc(Br)cc4c3=O)cc2)CC1 | -4.48 | 1.16 µM [falling, full curve] | –
18 | COc1ccc(NC(=O)CCNC(=O)C2CCN(S(=O)(=O)c3ccc(F)cc3)CC2)cc1OC | 45.6 | 20.6 µM [rising, partial curve] | 9.2 µM [rising, partial curve]
19 | CCCCCC(=O)OCCc1c(C)nc2nc[nH]n2c1=O | 4.66 | 6.51 µM [falling, single point] | 6.51 µM [falling, partial curve, poor fit]
20 | CCOC(=O)c1c(N=CN(C)C)c2cc([N+](=O)[O-])cnc2n1C | -3.86 | 0.103 µM [rising, full curve, poor fit] | –
21 | COC(=O)CNC(=O)C(CCSC)NC(C)=O (centres undefined) (Ac-[ξM]-Gly-OMe) | -15.4 | 0.92 µM [falling, full curve, poor fit] | –

Row | Structure (SMILES) | cell number change [%] | AC50 [1] | AC50 [2]
22 | C[n+]1ccccc1/C=C/c1ccc(F)c(F)c1 | -4.74 | – | –
23 | COc1ccc2c(c1)[nH]c1c(=O)n(CCC3=CCCCC3)cnc12 | 28.7 | 0.291 µM [rising, full curve, poor fit] | 0.103 µM [rising, full curve, poor fit]
24 | NC(=O)C1(N2CCCCC2)CCN(c2nc(-c3ccc(Br)cc3)cs2)CC1 | -15.5 | – | –
25 | CCN(CC)CCNCc1cc(Br)ccc1OCC(=O)NCc1ccccc1 | -22.8 | 4.11 µM [falling, partial curve] | 6.51 µM [falling, single point]
26 | COCCCn1c(-c2ccccc2)nc2ccccc2c1=O | 17.2 | 0.00651 µM [falling, full curve, poor fit] | –
27 | CCn1c(CSCc2c(Cl)cccc2Cl)n[nH]c1=S | – | 0.259 µM [rising, full curve] | 0.164 µM [rising, full curve]
28 | Oc1ccc[n+](/C=C\c2ccccc2)c1 | -8.84 | 0.00461 µM [falling, full curve, poor fit] | 0.731 µM [falling, single point]
29 | Cn1nnc(-c2ccc(OCc3ccccc3F)cc2)n1 | – | 0.146 µM [falling, full curve, poor fit] | –
30 | C=CCN=C(NC#N)SCC(=O)NC(C)(C)C | 13.4 | 8.2 µM [rising, partial curve] | –
31 | CCc1ccc(C2CC(=O)N3CN(c4ccccc4)CSC3=C2C#N)cc1 (centres undefined) | 12.3 | – | –
32 | c1cc(N2CCCC2)ccc1C(c1nnnn1C1CCCCC1)N1CCOCC1 (centres undefined) | -9.45 | – | –
33 | COc1ccc(CCNC(=O)C2CC(=O)N(c3ccc(C(C)(C)C)cc3)C2)cc1OC (centres undefined) | 15.6 | 6.51 µM [falling, single point] | –
34 | CCn1c(CO)nc2c1c(=O)[nH]c(=O)n2Cc1ccccc1 | 17.4 | 16.4 µM [rising, partial curve, poor fit] | –
35 | Cc1cc(C(=O)Nc2sc3c(c2C#N)CCC(C)C3)no1 (centres undefined) | – | – | 0.651 µM [rising, single point]
36 | Nc1nn(-c2ccccc2)nc1C(=O)OCc1ccccc1 | 0.955 | 29.1 µM [rising, single point] | –
37 | COc1ccc(CNC(=O)c2c(C)nc3ccccn23)cc1 | -35.6 | 14.6 µM [falling, partial curve] | 9.2 µM [falling, partial curve, poor fit]
38 | O=C(NCc1ccco1)c1cccc2c1C(=O)N(C1CCCCC1)C2 | 13.3 | 29.1 µM [rising, single point] | –
39 | COc1ccc(N2C(=O)CC(Nc3ccc(C)cc3)C2=O)cc1 (centres undefined) | -37.9 | – | 29.1 µM [falling, single point]
40 | O=C(NCC1CCCO1)c1ccc(COc2ccccc2Br)cc1 (centres undefined) | 16.4 | 2.06 µM [rising, partial curve] | –
41 | CCOc1ccc(N2C(=O)CC(Sc3ccccc3C(=O)O)C2=O)c([N+](=O)[O-])c1 (centres undefined) | -9.94 | 0.13 µM [falling, full curve, poor fit] | –

Shown with each value named: part of the list above
c1cc(N2CCCC2)ccc1C(c1nnnn1C1CCCCC1)N1CCOCC1 (centres undefined)
  cell number change [%]: -9.45
COc1ccc(CCNC(=O)C2CC(=O)N(c3ccc(C(C)(C)C)cc3)C2)cc1OC (centres undefined)
  cell number change [%]: 15.6
  AC50 [1]: 6.51 µM [falling, single point]

— PubChem BioAssay AID2685 (National Center for Advancing Translational Sciences (NCATS), 2010)
